These are yes or no findings as the source states them, for the method shown. In cells and extracts the contact can be indirect. A yes stands for co-enrichment or nearness to the bait. Other partners may have been found.
Molecular target: Cx36-EGFP (UniProt O54851)
Experiment: proximity labelling

Protein sequences, listed by entry. Tags and fused reporters are not part of them.
UniProt O54851: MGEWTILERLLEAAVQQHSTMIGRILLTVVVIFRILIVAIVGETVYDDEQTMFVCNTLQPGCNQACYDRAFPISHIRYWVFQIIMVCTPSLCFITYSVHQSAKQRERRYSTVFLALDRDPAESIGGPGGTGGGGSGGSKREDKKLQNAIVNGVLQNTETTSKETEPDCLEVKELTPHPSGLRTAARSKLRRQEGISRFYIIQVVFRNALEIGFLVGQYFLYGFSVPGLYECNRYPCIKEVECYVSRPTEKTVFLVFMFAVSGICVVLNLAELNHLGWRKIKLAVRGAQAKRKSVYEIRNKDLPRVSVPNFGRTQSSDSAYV

binding: binds
Substance: Cx36-SNAP (from UniProt O54851 1-321)
